Our source for the binding values is PMC12235857.

Protein sequences, listed by entry. Tags and fused reporters are not part of them.
UniProt P19338: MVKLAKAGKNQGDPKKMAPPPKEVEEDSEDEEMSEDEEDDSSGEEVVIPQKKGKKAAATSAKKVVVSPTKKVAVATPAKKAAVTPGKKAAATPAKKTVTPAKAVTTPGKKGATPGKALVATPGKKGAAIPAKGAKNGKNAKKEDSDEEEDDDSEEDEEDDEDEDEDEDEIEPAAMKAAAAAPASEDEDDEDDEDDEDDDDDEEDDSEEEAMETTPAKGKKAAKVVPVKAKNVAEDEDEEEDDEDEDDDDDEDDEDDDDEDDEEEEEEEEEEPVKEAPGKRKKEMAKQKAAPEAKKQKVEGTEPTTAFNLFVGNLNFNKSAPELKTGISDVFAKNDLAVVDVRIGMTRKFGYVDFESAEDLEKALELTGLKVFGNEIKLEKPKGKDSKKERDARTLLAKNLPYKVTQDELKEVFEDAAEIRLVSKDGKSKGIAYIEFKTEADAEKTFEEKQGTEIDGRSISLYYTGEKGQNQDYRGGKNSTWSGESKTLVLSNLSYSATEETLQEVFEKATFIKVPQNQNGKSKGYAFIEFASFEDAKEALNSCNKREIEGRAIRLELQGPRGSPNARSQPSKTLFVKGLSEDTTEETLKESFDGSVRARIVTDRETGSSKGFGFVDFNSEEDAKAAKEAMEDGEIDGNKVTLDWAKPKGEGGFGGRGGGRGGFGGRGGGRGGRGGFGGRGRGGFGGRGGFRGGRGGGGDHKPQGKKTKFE

Results are given in words; binding and its absence hold for the method and conditions named. Binding seen in cells or lysates may run through a third protein. Some results given as binding are weak or reduced against the parent protein; the word gives no strength.

Assay [1] addresses T1, ATF2 (human (endogenous in B cells from PBMCs)), P15336.
T1 chain: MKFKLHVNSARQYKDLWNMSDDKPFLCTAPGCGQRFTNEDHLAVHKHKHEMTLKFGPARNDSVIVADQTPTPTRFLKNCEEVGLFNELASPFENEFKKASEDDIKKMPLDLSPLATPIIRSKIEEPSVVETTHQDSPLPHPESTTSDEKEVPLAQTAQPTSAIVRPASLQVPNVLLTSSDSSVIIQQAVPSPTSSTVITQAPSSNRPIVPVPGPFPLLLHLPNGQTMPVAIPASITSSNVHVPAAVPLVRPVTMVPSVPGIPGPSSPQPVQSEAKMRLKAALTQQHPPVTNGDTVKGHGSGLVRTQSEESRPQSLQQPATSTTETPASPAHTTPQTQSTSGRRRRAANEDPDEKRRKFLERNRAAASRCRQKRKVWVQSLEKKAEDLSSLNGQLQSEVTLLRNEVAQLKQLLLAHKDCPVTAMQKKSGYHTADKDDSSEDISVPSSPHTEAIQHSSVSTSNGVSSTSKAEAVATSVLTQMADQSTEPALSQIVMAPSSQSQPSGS
The assay is described as follows: co-IP; control and PTN recombinant protein-treated B cells; immunoprecipitation and Western blotting; which protein was precipitated is not clearly told. The conditions noted are these: remark: other sources report otherwise. (A western blot detects proteins with antibodies after separation by electrophoresis.)

Assay [2] addresses nucleolin (NCL) (human (endogenous in B cells from PBMCs)) (UniProt P19338). The assay is described as follows: co-IP; B cells treated with PTN recombinant protein for different times; immunoprecipitation and Western blotting of cytoplasmic and nuclear fractions; which protein was precipitated is not told.

B1: c-Jun, P05412 1-331 (protein)
chain: MTAKMETTFYDDALNASFLPSESGPYGYSNPKILKQSMTLNLADPVGSLKPHLRAKNSDLLTSPDVGLLKLASPELERLIIQSSNGHITTTPTPTQFLCPKNVTDEQEGFAEGFVRALAELHSQNTLPSVTSAAQPVNGAGMVAPAVASVAGGSGSGGFSASLHSEPPVYANLSNFNPGALSSGGGAPSYGAAGLAFPAQPQQQQQPPHHLPQQMPVQHPRLQALKEEPQTVPEMPGETPPLSPIDMESQERIKAERKRMRNRIAASKCRKRKLERIARLEEKVKTLKAQNSELASTANMLREQVAQLKQKVMNHVNSGCQLMLTQQLQTF
Take B1: the binding result in assay [1] was “binds”.

B2: recombinant PTN (pleiotrophin; heparin-binding growth factor PTN) (ligand, UniProt P21246 33-168)
chain: GKKEKPEKKVKKSDCGEWQWSVCVPTSGDCGLGTREGTRTGAECKQTMKTQRCKIPCNWKKQFGAECKYQFQAWGECDLNTALKTRTGSLKRALHNAECQKTVTISKPCGKLTKPKPQAESKKKKKEGKKQEKMLD
B2: the binding result in assay [2] was “binds”.
